Assay results reported in patent publication US9770421B2, “Uses for idebenone and related benzoquinones in metabolic disorders and other PPAR α/γ related diseases and conditions” (INDANIO BIOSCIENCE INC., priority 2013, dated 2017).
Entries after “also recorded” stand apart in the source; their conditions may differ. At least one structure is not confirmed: it was looked up by name or label, or the drawing left a doubt.

Legend:
3T3-L1 cells = test: Murine 3T3-L1 adipocyte differentiation assay (Oil Red O); format: cell-based; details: with dexamethasone, isobutylmethylxanthine and insulin; Oil Red O staining
Experimental: The cell line was originally obtained from ATCC and 3T3-L1 cells were maintained in the fibroblasts stage in DMEM (Gibco: 11995-065), 10% FBS (Gibco: 26140-079) and Pen-Strep solution (Gibco: 15140-122). Cells were grown in 75 cm^2 flasks and sub-cultured just prior to confluence. Medium was removed and washed twice with PBS. For cell differentiation 2 day post-confluent monolayers were incubated for 2 days in DMEM containing: 10% fetal bovine serum (FBS), 100 μg/ml IBMX (from a 500× stock in 0.15 M KOH, prepared fresh), 390 ng/ml dexamethasone (from a 1000× stock in EtOH) and 5 μg/ml insulin (from a 1000× stock in 0.1 M HCl). After 2 days media was replaced with DMEM+ 10% FBS and 5 μg insulin only and cells were maintained for another 2 days. Media was then replaced by DMEM+ 10% FBS for 5-6 days until differentiation was complete. After differentiation media was removed and cells were washed twice with PBS and then fixed in 4% PFA. Lipids were stained with Oil O red.

[1] = system: diet-induced obese C57BL/6J male mice; test: Diet-induced-obese (DIO) mouse study; format: in vivo; details: gavage twice daily for 5 days; 50 mpk idebenone, 30 mpk rosiglitazone
Experimental: Mouse-based biomedical research was performed by the Jackson Laboratory to test the efficacy of idebenone in a diet-induced-obese (DIO) mouse model and approved by the Institutional Animal Care and Use Committee (IACUC). To test the efficacy of idebenone in a db/db mouse model experiments were performed at the Univerity of Torotno and were approved by the Animal Care Committee at the University of Toronto.
DIO study: Forty four (44) diet-induced obese C57BL/6J male mice (started on high fat diet at the age of 6 weeks) were used at 16 wks of age. The mice were ear notched for identification using the standard mouse ID format. Mice were housed at a density of 3-4 per cage in polycarbonate cages, which were both individually and positively ventilated. Bed-o'Cobs® corn cob bedding was provided and was changed every two weeks or as needed.
The animal room was lighted entirely with artificial fluorescent lighting on controlled 12 hr light/dark cycle (6 a.m. to 6 p.m. light). The normal temperature and relative humidity ranges in the animal rooms were maintained at 22±4° C. and 50±15%, respectively. The animal room was set for 15 air exchanges per hour. […] Body weights, non-fasting blood glucose, and insulin were measured before dosing. […] Fasting blood glucose and insulin were measured at the end of dosing (mice were fasted overnight on day 5, and insulin and blood glucose was measured on day 6). […]

C57Bl/6 db/db mice = test: db/db mouse study (NAFLD features); format: in vivo; details: 21 days
Experimental: Db/db study: Forty male C57Bl/6 db/db mice (called B6.BKS(D)-Lepr db/J) were ordered from Jackson Laboratories (#000697) at 7 weeks of age. Mice were housed individually with free access to food (2016 Teklad Global 16% Protein Rodent Diet) and water on a 14 hour light/dark cycle (6 a.m. to 8 p.m. light). […] Food was exchanged on a daily bases. Harlan corn cob bedding was provided and was changed every week or as needed. Following a 1 week acclimation, 32 mice were chosen based on desired body weight range. Remaining mice were euthanized. Mice were randomized by body weight into four treatment groups (n=8) by body weight. Dosing occurred for 21 days. Mice were euthanized by CO2 euthanasia and livers were fixed in neutral buffered formalin (NBF) for 24 h, followed by a one day fixation in 30% Sucrose and 10% Sucrose. Oil O Red staining was performed through the Pathology Research Program at the University Health Network in Toronto [46]. [table] 100 mg of db/db livers were homogenized in RIPA buffer and protein concentration was quantified using a BCA protein assay kit (Cell signalling #7780) followed by measurement of ‘Thiobarbituric Acid Reactive Substances’ (TBARS) using a TBARS assay kit (Cayman Chemicals #10009055). […] Relative mRNA levels were calculated using the comparative Ct method normalized to cyclophilin mRNA.

CN(CCOc1ccc(CC2SC(=O)NC2=O)cc1)c1ccccn1 (centres unmarked) [rosiglitazone]
Lipid accumulation / adipocyte differentiation (3T3-L1 cells): conversion of the cells to adipocytes with greatly increased lipid accumulation and storage; also recorded: results in the accumulation of intracellular lipids
Blood glucose levels [1]: trend towards lowered blood glucose levels
Fasting insulin levels [1]: reduction in fasting insulin levels
Liver PLIN4 mRNA expression (QPCR) (C57Bl/6 db/db mice): upregulated PLIN4 strongly
Liver lipid content (Oil Red O staining) (C57Bl/6 db/db mice; 900/1800 mpk idebenone, 10 mpk rosiglitazone): significantly higher
